Data as given in ChEMBL document CHEMBL5030544, “Synthesis, anti-microbial, toxicity and molecular docking studies of N-nitroso-N-phenylhydroxylamine (cupferron) and its derivatives” (Bioorg Med Chem Lett, 2021).

What was measured:
[1] = system: Escherichia coli; assay: Antibacterial activity against Escherichia coli ATCC 25922 assessed as zone of inhibition at 10 mg/ml; format: functional
[2] = system: Escherichia coli; assay: Antibacterial activity against Escherichia coli ATCC 25922 assessed as zone of inhibition at 15 mg/ml; format: functional

GENTAMICIN
inhibition zone (IZ) [1]: 8 mm
inhibition zone (IZ) [2]: 12 mm
